Among all 400,000 compounds or so, about 5,500 (1.4%) were called active. The shares of active, inactive and inconclusive entries below differ from those in the screen. The call rests on the fitted dose curve; in most records, active means well fitted cell-killing curve with a large enough effect; inconclusive means small, poorly fitted or top-dose-only effect, or effect the other way; inactive means flat fitted curve, though single readings scatter. A potency beside an inconclusive call is a rough fit, not a confirmed value.
Assay: qHTS assay for MDR1-selective chemotherapeutics: Primary screen using the parental adenocarcinoma cell KB-3-1; further: nearly all actives have a fitted effect of over 60% in size
Settings: KB-3-1 viability, CellTiter-Glo ATP luminescence, 72 h; activity change, negative = cytotoxic: at 46.1 µM (top of the series)
In short: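 Viability of parental KB-3-1 cells, measured by CellTiter-Glo luminescence, followed a 72 h incubation at 37 °C with pinned compounds in phenol-red-free DMEM containing 10% FBS.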
On the % scale 0 is the no-effect control and ±100 the full control effect; potency means the concentration at half of the fitted maximal effect.

Row | Compound | activity change, negative = cytotoxic | Potency
1 | Cc1cnc(NC(=O)C(C)N2CCN(C)CC2)s1 (stereo not given) | inactive: 2.49% | –
2 | CCN(CC)S(=O)(=O)c1cccc(C(=O)NCC(c2ccccc2)N(C)C)c1 (stereo not given) | inactive: 2.12% | –
3 | COc1ccc(NC(=O)CN(C)C(=O)c2cn(-c3ccccc3)nc2-c2cccnc2)cc1 | – | inconclusive: 16.4 µM [rising, partial curve]
4 | Cc1nnc(NC(=O)CCC2CCCCC2)s1 | – | inconclusive: 32.6 µM [cytotoxic, single point]
5 | CNC(=O)c1sc2nc(-c3ccc(OC)cc3)cn2c1C | inactive: 13.9% | –
6 | CC(C)OC(=O)N(C)c1ccc(C(O)(C(F)(F)F)C(F)(F)F)cc1 | – | inconclusive: 16.4 µM [cytotoxic, single point]
7 | COc1ccc(-c2ccc(CCC(=O)O)o2)cc1 | – | inconclusive: 29.1 µM [cytotoxic, single point]
8 | Cc1ccc(-c2[nH]nc(N)c2N=Nc2ccccc2C)cc1 | – | inconclusive: 29.1 µM [cytotoxic, single point]
9 | COc1ccc(CN(C(=O)c2cccc(OC)c2)C2CCS(=O)(=O)C2)cc1 (stereo not given) | inconclusive: 16.3% | –
10 | O=S(=O)(NC(=S)c1ccccc1)c1ccccc1 | – | inconclusive: 2.06 µM [rising, partial curve, poor fit]
11 | COC(=O)Nc1nc(-c2ccccc2)c(C(=O)c2ccc(Cl)cc2)s1 | – | active: 1.03 µM
12 | Cc1nn(CC(=O)OCC(=O)c2ccccc2)c(C)c1[N+](=O)[O-] | inconclusive: -0.95% | –
13 | CC(C)Oc1ccc(CN=C(N)N=C(N)N)cc1Cl | – | inconclusive: 16.4 µM [cytotoxic, single point]
14 | Cc1cccc(NC(=S)N(CCCN2CCOCC2)Cc2cn(C)c3ccccc23)c1 | – | inconclusive: 7.31 µM [rising, partial curve]
15 | O=C(O)/C=C/c1ccc(S(=O)(=O)NCc2cccnc2)cc1 | inactive: 2.49% | –
16 | COc1ccc(S(=O)(=O)N2CCOC23CCN(S(C)(=O)=O)CC3)cc1 | inactive: 8.17% | –
17 | COc1ccc(C(=O)NCC(c2ccc3c(c2)OCO3)N2CCOCC2)cc1 (stereo not given) | – | inconclusive: 0.0092 µM [cytotoxic, full curve]
18 | COC1=CC(=O)OC(c2ccc(OC)cc2)C1 (stereo not given) | – | inconclusive: 29.1 µM [rising, single point]
19 | O=C(COc1ccccc1)NNC(=O)c1ccc(Cl)cc1 | inactive: 11.2% | –
20 | OC(CN1CCN(Cc2ccccc2)CC1)Cn1c2ccccc2c2ccccc21 (stereo not given) | – | inconclusive: 29.1 µM [cytotoxic, single point]
21 | C=CCC1(CC=C)CCCN1C(=O)C1CCC(=O)N(CCc2ccc(OC)cc2)C1 (stereo not given) | inactive: -4.75% | –
22 | NC(=Nc1c([N+](=O)[O-])cnc2ccccc12)N1CCOCC1 | inactive: -18.9% | –
23 | O=C(C1CCC(Cn2c(=S)[nH]c3ccccc3c2=O)CC1)N1CCOCC1 (stereo not given) | – | inconclusive: 18.4 µM [cytotoxic, partial curve, poor fit]
24 | CCN(C(=O)C1CCC(CNS(=O)(=O)c2cccc3nsnc23)CC1)c1ccccc1 (stereo not given) | – | inconclusive: 29.1 µM [cytotoxic, single point]

17 structures out of the list, arranged by molar mass, falling:
Row | Compound | activity change, negative = cytotoxic | Potency
24 | CCN(C(=O)C1CCC(CNS(=O)(=O)c2cccc3nsnc23)CC1)c1ccccc1 (stereo not given) | – | inconclusive: 29.1 µM [cytotoxic, single point]
3 | COc1ccc(NC(=O)CN(C)C(=O)c2cn(-c3ccccc3)nc2-c2cccnc2)cc1 | – | inconclusive: 16.4 µM [rising, partial curve]
14 | Cc1cccc(NC(=S)N(CCCN2CCOCC2)Cc2cn(C)c3ccccc23)c1 | – | inconclusive: 7.31 µM [rising, partial curve]
2 | CCN(CC)S(=O)(=O)c1cccc(C(=O)NCC(c2ccccc2)N(C)C)c1 (stereo not given) | inactive: 2.12% | –
20 | OC(CN1CCN(Cc2ccccc2)CC1)Cn1c2ccccc2c2ccccc21 (stereo not given) | – | inconclusive: 29.1 µM [cytotoxic, single point]
16 | COc1ccc(S(=O)(=O)N2CCOC23CCN(S(C)(=O)=O)CC3)cc1 | inactive: 8.17% | –
9 | COc1ccc(CN(C(=O)c2cccc(OC)c2)C2CCS(=O)(=O)C2)cc1 (stereo not given) | inconclusive: 16.3% | –
23 | O=C(C1CCC(Cn2c(=S)[nH]c3ccccc3c2=O)CC1)N1CCOCC1 (stereo not given) | – | inconclusive: 18.4 µM [cytotoxic, partial curve, poor fit]
17 | COc1ccc(C(=O)NCC(c2ccc3c(c2)OCO3)N2CCOCC2)cc1 (stereo not given) | – | inconclusive: 0.0092 µM [cytotoxic, full curve]
15 | O=C(O)/C=C/c1ccc(S(=O)(=O)NCc2cccnc2)cc1 | inactive: 2.49% | –
12 | Cc1nn(CC(=O)OCC(=O)c2ccccc2)c(C)c1[N+](=O)[O-] | inconclusive: -0.95% | –
22 | NC(=Nc1c([N+](=O)[O-])cnc2ccccc12)N1CCOCC1 | inactive: -18.9% | –
8 | Cc1ccc(-c2[nH]nc(N)c2N=Nc2ccccc2C)cc1 | – | inconclusive: 29.1 µM [cytotoxic, single point]
10 | O=S(=O)(NC(=S)c1ccccc1)c1ccccc1 | – | inconclusive: 2.06 µM [rising, partial curve, poor fit]
1 | Cc1cnc(NC(=O)C(C)N2CCN(C)CC2)s1 (stereo not given) | inactive: 2.49% | –
7 | COc1ccc(-c2ccc(CCC(=O)O)o2)cc1 | – | inconclusive: 29.1 µM [cytotoxic, single point]
18 | COC1=CC(=O)OC(c2ccc(OC)cc2)C1 (stereo not given) | – | inconclusive: 29.1 µM [rising, single point]

More results:

Row | Compound | activity change, negative = cytotoxic | Potency
25 | CCN(CC(=O)Nc1ccc2c(c1)OCCO2)Cc1cc(=O)n2ccsc2n1 | – | inconclusive: 16.4 µM [rising, single point]
26 | O=C(Nc1ccc2oc(-c3cccc(F)c3)nc2c1)c1ccccc1F | – | inconclusive: 29.1 µM [cytotoxic, single point]
27 | Cn1nnnc1SCC(=O)Nc1nc(-c2ccc(F)c(F)c2)cs1 | inactive: -2.46% | –
28 | CC1(C)COC(c2ccc(F)c([N+](=O)[O-])c2)=N1 | – | inconclusive: 18.4 µM [cytotoxic, single point]
29 | CC(C)OC(=O)/C(C#N)=C/c1cn(Cc2ccccc2)c2ccccc12 | – | inconclusive: 16.4 µM [cytotoxic, single point]
30 | Cc1ccc(CNc2ccc(N3CCN(C)CC3=O)cc2)cc1 | inactive: 16.1% | –
31 | Cc1cc(C)cc(NS(=O)(=O)c2ccc(-c3cnc(C4CC4)o3)cc2)c1 | – | active: 1.16 µM
32 | Cc1cccc(Nc2nc(OCC#N)nc(N(C)C)n2)c1 | – | inconclusive: 29.1 µM [cytotoxic, single point]
33 | COc1cccc(NC(=O)CN2CCN(c3ccc(F)cc3)CC2)c1 | inactive: 0.0342% | –
34 | CCCCCCCOc1ccc(OC(=O)c2cccnc2)cc1 | inconclusive: -2.95% | –
35 | COc1ccc(CCN2C(=NC(C)=O)SC3CS(=O)(=O)CC32)cc1OC (stereo not given) | inactive: 5.85% | –
36 | CCOC(=O)c1c(NC(=O)CN2CCN(S(=O)(=O)c3cc(Cl)ccc3Cl)CC2)sc(C(=O)N(C)C)c1C | – | inconclusive: 29.1 µM [cytotoxic, single point]
37 | CCOc1ccc(C2C=C(c3cccc(OC)c3)Nc3nnnn32)cc1 (stereo not given) | inactive: 0.209% | –
38 | Cc1cccc(C(C)(C)C)c1OCCOCCN1CCCC1 | – | inconclusive: 20.6 µM [cytotoxic, single point]
39 | CC(OC(=O)c1ccc(-c2ccc(O)cc2)cc1)C(=O)NC1CCCCC1C (stereo not given) | – | inconclusive: 18.4 µM [cytotoxic, single point]
40 | COc1ccc(N2CCN(C(=O)c3ccc(CS(=O)(=O)c4ccc(OC)cc4)o3)CC2)cc1 | – | inconclusive: 32.6 µM [cytotoxic, single point]
41 | O=C1CCc2ccc(OCCCCN3CCN(c4cccc(Cl)c4Cl)CC3)cc2N1 | – | inconclusive: 29.1 µM [cytotoxic, single point]
42 | Cc1ccc(NC(NC(=O)Cc2ccccc2)C(Cl)(Cl)Cl)cc1 (stereo not given) | – | inconclusive: 20.6 µM [cytotoxic, partial curve, poor fit]
43 | O=C(COc1ccccc1)NCC(c1cccs1)S(=O)(=O)c1ccc(Cl)cc1 (stereo not given) | inactive: 0.848% | –
44 | COc1ccc(NC(=O)c2cc3c(=O)n(C)c4ccccc4c3s2)cc1Cl | – | inconclusive: 29.1 µM [cytotoxic, single point]
45 | O=c1[nH]c(=O)n(Cc2ccccc2)c2nc(-c3ccc(Oc4ccc(F)cc4)c([N+](=O)[O-])c3)n(CCO)c12 | – | inconclusive: 29.1 µM [cytotoxic, single point]
46 | CCCCCCn1c(N2CCC(C)CC2)nc2c1c(=O)[nH]c(=O)n2C | – | inconclusive: 10.3 µM [cytotoxic, partial curve]
47 | COc1cc(/C=N/NC(=S)NC2CC3CC2C2C=CCC32)ccc1O (stereo not given) | – | inconclusive: 29.1 µM [cytotoxic, single point]
48 | CCOC(=O)C1(Cc2cccc(F)c2)CCN(Cc2ccc(COC)o2)CC1 | – | inconclusive: 32.6 µM [cytotoxic, single point]

Row | Compound | activity change, negative = cytotoxic | Potency
49 | N#CC(CC(=O)c1ccc(Cl)cc1)c1ccccc1 (stereo not given) | inactive: -5.11% | –
50 | CC(=O)c1cccc(NCc2ccccc2-c2nnc(-c3ccccc3)o2)c1 | inactive: 12.3% | –
51 | COc1ccc(NC(=O)Cn2nnc(-c3ccccc3NC(=O)c3cccs3)n2)cc1 | – | inconclusive: 3.26 µM [cytotoxic, partial curve, poor fit]
52 | CS(=O)c1ccccc1-c1nc(-c2ccc([N+](=O)[O-])cc2)no1 (stereo not given) | – | inconclusive: 32.6 µM [cytotoxic, single point]
53 | CCCCn1c(=N)n(CC(O)c2ccccc2)c2ccccc21 (stereo not given) | – | inconclusive: 14.6 µM [cytotoxic, partial curve, poor fit]
54 | Cc1ccc(N2C(N)=C(C#N)C(c3cccnc3)C3=C2CCCC3=O)cc1 (stereo not given) | – | inconclusive: 29.1 µM [cytotoxic, single point]
55 | O=c1[nH]c(/C=C2\C=Nc3ccccc32)c(O)n1Cc1ccccc1F | – | inconclusive: 32.6 µM [cytotoxic, single point]
56 | CCc1cc(C(=O)Nc2ccc(S(=O)(=O)NC3=NCCCCC3)cc2)sc1C | inactive: 21.8% | –
57 | Cc1ccc2c(c1)N(C(=O)CCC(=O)NCc1cccnc1)CC(C)O2 (stereo not given) | inactive: 1.65% | –
58 | COc1cc(C(=O)NCCNc2nc3c(C)cccc3cc2C#N)cc(OC)c1OC | inactive: -17.9% | –
59 | CC1(CCc2ccccc2)NC(=O)N(CC(=O)Nc2c(F)cccc2F)C1=O (stereo not given) | – | inconclusive: 6.51 µM [cytotoxic, full curve, poor fit]
60 | CCCc1c(-c2cccc(Br)c2)ncn1Cc1cccc(-c2ccccc2)c1 | – | inconclusive: 29.1 µM [cytotoxic, single point]
61 | O=C(CCS(=O)(=O)c1ccccc1)Nc1nc(-c2ccccn2)cs1 | – | inconclusive: 29.1 µM [cytotoxic, single point]
62 | CCc1nc2ccc(C(=O)NCc3ccc(OC)cc3)cn2c1N(CC)Cc1cccc(Br)c1 | – | inconclusive: 29.1 µM [cytotoxic, single point]
63 | CCN(CC)CCCNC(=O)c1ccc2c(c1)N(Cc1c(F)cccc1Cl)C(=O)c1ccccc1S2 | – | inconclusive: 20.6 µM [cytotoxic, single point]
64 | CC(NCc1cccc(OCc2ccccc2)c1)C(O)c1ccccc1 (stereo not given) | inactive: 3.7% | –
65 | COC(=O)c1nnn(CC(=O)NC(=O)Nc2ccccc2)c1C(=O)OC | inactive: 19.9% | –
66 | COC(=O)c1nnn(CC(=O)Nc2cc(F)ccc2F)c1C(=O)OC | – | inconclusive: 13 µM [rising, partial curve, poor fit]
67 | CNC(=S)Nc1ccc(N2CCN(c3ccc(C(F)(F)F)cn3)CC2)nc1 | inactive: 0% | –
68 | COc1cc2ncc(S(=O)(=O)c3ccccc3)c(N3CCCC(C)C3)c2cc1OC (stereo not given) | – | inconclusive: 29.1 µM [cytotoxic, single point]
69 | O=C(C[C@H]1C/C=C\CC[C@H](Cc2ccc(F)cc2)C(=O)O[C@@H](c2ccccc2)CNC1=O)N[C@H](CO)Cc1ccccc1 | – | inconclusive: 29.1 µM [cytotoxic, single point]
70 | CCN1CCCC1CNC(=O)CSCc1nc(-c2ccccc2C)oc1C (stereo not given) | – | inconclusive: 11.2 µM [cytotoxic, partial curve, poor fit]

Source: PubChem BioAssay AID1347075 (National Center for Advancing Translational Sciences (NCATS), 2019)
